PubChem BioAssay AID1671195, Yale University – 2021

- Purpose: 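Knockdowns that increase or decrease uptake of fluorescent LDL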 (primary screen)
- Cell system: human Huh7 hepatoma cells
- Reagents: siRNA pool against human genes, 18 nM
- Timing: about 2 to 2.5 days of knockdown, then 8 h LDL uptake
- Challenge: DiI-labelled LDL at 30 µg/ml for 8 h, in lipoprotein-deficient serum medium
- Measurement: 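Per-cell DiI-LDL intensity by automated imaging; well means scaled to the plate median and given as a robust z-score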
- Scale: robust z-score: higher = more LDL uptake after knockdown
- Call rule: 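Active when two or more replicates show a robust z-score above 2 or below -2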
The deposit covers about 22,000 reagents; below is a random part of them. Of all reagents, about 1,510 (6.9%) are marked active. 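Active includes knockdowns raising or lowering LDL uptake; positive z-scores mean more uptake, negative mean less.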 Unmarked entries are inactive. Reagent sequences are not shown.

gene	robust z-score, replicate 1	robust z-score, replicate 2	robust z-score, replicate 3
IL17B	0.0154	0.64	-1.19
RNF8	2.04 (active)	4.01	2.22
ZC3H6	-1.08	-1.14	-1.04
COX6A1	-1.33	-1.55	-1.56
ADA	0.811	0.428	0.662
TMEM81	1.55	1.1	1.52
OTP	0.0996	-0.851	-1.15
FAM226A	2.75 (active)	2.4	2.4
LOC441929 (retired record)	-0.574	-0.191	-0.179
MTCL1	-0.433	0.216	0.369
DICER1	1.69	0.595	1.06
WNT1	-0.0967	0.853	-0.31
ANGPT4	0.257	-0.241	-0.0264
MIDN	-0.753	-0.496	-0.318
CIB2	-0.162	0.0654	-0.155
KDM2B	0.0867	0.342	-0.436
SEMA4C	-0.278	-0.434	0.64
LETMD1	2.43	1.35	1.66
AJAP1	-1.17	-1.08	-0.271
ZNF287	1.2	1	0.721
HPCAL1	-0.735	-1.18	-0.621
HCN4	-0.441	-0.423	-0.636
WBSCR23	-1.2	-1.33	-1.02
SLC45A3	-0.308	-0.0118	-0.0253
PAXX	3.03 (active)	3.11	3.84
C3AR1	1.21	1.08	0.727
RNF123	-0.0325	0.099	-0.541
ALKBH3	-0.363	-0.569	-0.66
PLAAT3	0.324	0.21	0.53
RB1CC1	-0.232	0.0768	0.248
ECHS1	-0.923	1.52	-0.728
INO80C	-1.71	-1.49	-1.44
LINC02209	-0.515	-1	-1.13
C2CD2	-0.377	-1.82	-1.03
FBF1	0.465	1.03	0.336
ADCY4	-1.14	-1.69	-0.683
IAPP	-0.521	0.719	0.0681
NPFFR2	1.22	0.408	1.82
AP1S2	-0.94	-1.42	-1.2
MARCHF7	1.18	0.966	1
ZSCAN18	-1.36	-1.19	-0.792
FASLG	0.329	0.919	0.0133
ICE1	-0.327	-0.329	-0.145
SPINK13	-0.428	0.917	-0.481
SFSWAP	-0.832	0.164	-1.85
ARHGEF39	1.72	0.679	1.57
GPR50	5.87 (active)	3.86	4.86
MRPL1	0.685	0.602	0.0919
METTL15	1.1	0.103	-0.599
SCARB2	-0.257	0.541	0.457
AK4	0.722	0.96	-0.341
SLC12A4	-0.589	0.153	-0.192
TMEFF2	-1.43	-0.642	-1.79
ERCC8	0.893	0.982	0.136
SIRT3	-0.568	0.269	0.405
RPS17P6	-0.862	1.24	0.919
SEC11A	0.431	-0.398	0.438
NPTX2	0.197	-0.414	0.405
TMEM33	0.942	2.05	0.517
ANKRD50	-0.576	-0.3	0.331
THTPA	-0.521	-0.522	-0.33
SEPTIN2	2.04	-0.301	0.289
MPP1	0.914	0.865	-0.355
SLC22A11	-1.42	-0.786	-0.836
LIPF	-0.755	-0.343	-0.342
LOC389607 (retired record)	-0.803	-0.0782	-0.298
TNFSF12	-2.45 (active)	-1.06	-2.34
LOC388002 (retired record)	0.36	0.0621	-0.0499

Copied from above (5 entries):
gene	robust z-score, replicate 1	robust z-score, replicate 2	robust z-score, replicate 3
C2CD2	-0.377	-1.82	-1.03
FBF1	0.465	1.03	0.336
ADCY4	-1.14	-1.69	-0.683
IAPP	-0.521	0.719	0.0681
NPFFR2	1.22	0.408	1.82
